From publication PMC7948974, “Heme oxygenase-1 affects cytochrome P450 function through the formation of heteromeric complexes: Interactions between CYP1A2 and heme oxygenase-1” (The Journal of Biological Chemistry, 2020)
No constants are given. Whether binding was seen depends on the method and setting. In cells and extracts the contact can be indirect. Some binding calls cover weakened binding; strength is not graded here. Sequences can lack the tags named with a protein. Blank lines part the entries; values can stand above or below the molecule they belong to.

Protein sequences, listed by entry. Tags and fused reporters are not part of them.
UniProt P10635: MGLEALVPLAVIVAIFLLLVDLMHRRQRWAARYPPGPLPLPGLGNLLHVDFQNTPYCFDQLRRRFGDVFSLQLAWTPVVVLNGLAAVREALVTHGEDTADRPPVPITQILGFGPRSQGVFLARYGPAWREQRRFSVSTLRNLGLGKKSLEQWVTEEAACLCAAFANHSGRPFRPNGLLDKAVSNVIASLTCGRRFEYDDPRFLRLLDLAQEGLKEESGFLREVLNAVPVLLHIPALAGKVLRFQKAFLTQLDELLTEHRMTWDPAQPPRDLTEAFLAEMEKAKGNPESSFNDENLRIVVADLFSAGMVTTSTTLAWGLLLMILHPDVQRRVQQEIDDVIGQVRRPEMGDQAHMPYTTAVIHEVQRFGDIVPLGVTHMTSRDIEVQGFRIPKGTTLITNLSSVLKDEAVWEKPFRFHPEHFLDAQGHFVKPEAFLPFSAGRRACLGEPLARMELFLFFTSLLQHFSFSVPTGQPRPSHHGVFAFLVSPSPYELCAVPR

Columns and labels:
[1] = target: T1, Rluc-HO-1 (heme oxygenase 1 with an N-terminal Rluc tag) (human) (UniProt P09601); assay: FRET or BRET; BRET screen in living HEK 293T/17 cells, 48 h after transfection; GFP-tagged P450 expressed 15- to 30-fold above Rluc-tagged HO-1 to approach BRETmax; coelenterazine 400A
T1 sequence: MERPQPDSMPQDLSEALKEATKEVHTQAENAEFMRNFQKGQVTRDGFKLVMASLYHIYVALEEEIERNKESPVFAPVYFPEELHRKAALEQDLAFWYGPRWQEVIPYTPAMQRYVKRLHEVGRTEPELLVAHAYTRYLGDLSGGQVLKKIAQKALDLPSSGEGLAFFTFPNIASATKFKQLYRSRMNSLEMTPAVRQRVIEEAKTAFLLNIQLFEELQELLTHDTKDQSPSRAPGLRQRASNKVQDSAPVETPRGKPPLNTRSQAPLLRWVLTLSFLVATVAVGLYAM

[2] = target: T2, POR-Rluc (NADPH-cytochrome P450 reductase with a C-terminal Rluc tag) (human) (UniProt P16435); assay: FRET or BRET; BRET saturation curves in living HEK 293T/17 cells, 24 h after transfection, over a range of GFP-to-Rluc ratios at like total expression, fit to a hyperbola; for CYP1A2-GFP with Rluc-HO-1 also at a fixed ratio (>38:1) over a range of DNA amounts; coelenterazine 400A
T2 sequence: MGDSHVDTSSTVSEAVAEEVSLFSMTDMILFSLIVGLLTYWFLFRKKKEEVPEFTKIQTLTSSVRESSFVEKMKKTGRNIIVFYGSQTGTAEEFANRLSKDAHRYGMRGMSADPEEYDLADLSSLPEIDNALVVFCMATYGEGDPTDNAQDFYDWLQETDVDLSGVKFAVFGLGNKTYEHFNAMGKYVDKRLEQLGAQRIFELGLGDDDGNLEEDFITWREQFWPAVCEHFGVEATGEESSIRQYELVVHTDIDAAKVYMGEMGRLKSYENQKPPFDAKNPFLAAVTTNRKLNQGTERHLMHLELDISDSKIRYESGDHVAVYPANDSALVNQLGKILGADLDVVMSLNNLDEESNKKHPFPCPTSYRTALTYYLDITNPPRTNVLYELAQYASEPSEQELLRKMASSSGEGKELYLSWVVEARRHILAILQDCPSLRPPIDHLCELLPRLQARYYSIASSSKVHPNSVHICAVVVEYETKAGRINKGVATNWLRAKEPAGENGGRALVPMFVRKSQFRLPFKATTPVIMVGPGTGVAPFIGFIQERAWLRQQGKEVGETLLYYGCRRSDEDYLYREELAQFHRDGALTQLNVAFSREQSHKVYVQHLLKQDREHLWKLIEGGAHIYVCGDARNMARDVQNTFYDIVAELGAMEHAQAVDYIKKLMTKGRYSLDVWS

[3] = target: T3, CYP1A2-GFP (rabbit cytochrome P450 1A2 with a C-terminal GFP2 tag) (rabbit) (UniProt P00187); assay: as above
T3 sequence: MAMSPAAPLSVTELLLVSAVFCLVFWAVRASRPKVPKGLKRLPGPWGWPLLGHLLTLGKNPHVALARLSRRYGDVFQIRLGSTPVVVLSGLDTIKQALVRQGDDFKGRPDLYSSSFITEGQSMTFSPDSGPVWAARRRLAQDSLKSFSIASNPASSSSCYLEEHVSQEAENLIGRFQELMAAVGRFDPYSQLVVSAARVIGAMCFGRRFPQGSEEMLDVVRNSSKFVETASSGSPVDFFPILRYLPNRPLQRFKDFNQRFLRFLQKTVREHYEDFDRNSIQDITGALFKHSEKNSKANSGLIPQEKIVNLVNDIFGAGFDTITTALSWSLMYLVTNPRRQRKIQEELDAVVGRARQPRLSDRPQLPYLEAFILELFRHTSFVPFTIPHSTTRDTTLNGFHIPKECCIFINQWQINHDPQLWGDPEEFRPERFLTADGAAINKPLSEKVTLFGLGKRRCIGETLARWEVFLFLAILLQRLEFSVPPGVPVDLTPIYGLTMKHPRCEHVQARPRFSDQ

[4] = target: T1, Rluc-HO-1 (heme oxygenase 1 with an N-terminal Rluc tag) (human); assay: as above
[5] = target: T3, CYP1A2-GFP (rabbit cytochrome P450 1A2 with a C-terminal GFP2 tag) (rabbit); assay: FRET or BRET; BRET of a tagged pair in living HEK 293T/17 cells with a cotransfected untagged third protein (500 ng POR DNA, 500 ng or 2000 ng HO-1 DNA, 2 ug CYP1A2 DNA), 24 h after transfection, compared with the pair alone

binding [5]: binds
B3: Unlabeled HO-1 (untagged heme oxygenase 1) (enzyme, UniProt P09601 1-288)
chain: T1 sequence

binding [2]: binds
B4: GFP-HO-1 (heme oxygenase 1 with an N-terminal GFP2 tag) (enzyme, UniProt P09601 1-288)
chain: T1 sequence

More lines, now with the values behind:

Molecule: CYP2D6-GFP (human cytochrome P450 2D6 with a C-terminal GFP2 tag) (from UniProt P10635 1-497) (enzyme)
binding [1]: binds

B1: CYP1A1-GFP (human cytochrome P450 1A1 with a C-terminal GFP2 tag) (enzyme, UniProt P04798 1-512)
chain: MLFPISMSATEFLLASVIFCLVFWVIRASRPQVPKGLKNPPGPWGWPLIGHMLTLGKNPHLALSRMSQQYGDVLQIRIGSTPVVVLSGLDTIRQALVRQGDDFKGRPDLYTFTLISNGQSMSFSPDSGPVWAARRRLAQNGLKSFSIASDPASSTSCYLEEHVSKEAEVLISTLQELMAGPGHFNPYRYVVVSVTNVICAICFGRRYDHNHQELLSLVNLNNNFGEVVGSGNPADFIPILRYLPNPSLNAFKDLNEKFYSFMQKMVKEHYKTFEKGHIRDITDSLIEHCQEKQLDENANVQLSDEKIINIVLDLFGAGFDTVTTAISWSLMYLVMNPRVQRKIQEELDTVIGRSRRPRLSDRSHLPYMEAFILETFRHSSFVPFTIPHSTTRDTSLKGFYIPKGRCVFVNQWQINHDQKLWVNPSEFLPERFLTPDGAIDKVLSEKVIIFGMGKRKCIGETIARWEVFLFLAILLQRVEFSVPLGVKVDMTPIYGLTMKHACCEHFQMQLRS
binding [1]: binds

B2: CYP1A2-GFP (rabbit cytochrome P450 1A2 with a C-terminal GFP2 tag) (enzyme, UniProt P00187 1-516)
chain: T3 sequence
binding [1]: binds
binding [2]: binds
binding [3]: binds
binding [4]: binds
